Assay results as given in the supplement of paper PMC10849652.
The list shows a part of the results.

By UniProt entry, the sequences of proteins in these tests, tags left out. Where a name states a change or a piece, a line headed by the entry shows the natural chain unless it says otherwise.
UniProt Q5VWQ0: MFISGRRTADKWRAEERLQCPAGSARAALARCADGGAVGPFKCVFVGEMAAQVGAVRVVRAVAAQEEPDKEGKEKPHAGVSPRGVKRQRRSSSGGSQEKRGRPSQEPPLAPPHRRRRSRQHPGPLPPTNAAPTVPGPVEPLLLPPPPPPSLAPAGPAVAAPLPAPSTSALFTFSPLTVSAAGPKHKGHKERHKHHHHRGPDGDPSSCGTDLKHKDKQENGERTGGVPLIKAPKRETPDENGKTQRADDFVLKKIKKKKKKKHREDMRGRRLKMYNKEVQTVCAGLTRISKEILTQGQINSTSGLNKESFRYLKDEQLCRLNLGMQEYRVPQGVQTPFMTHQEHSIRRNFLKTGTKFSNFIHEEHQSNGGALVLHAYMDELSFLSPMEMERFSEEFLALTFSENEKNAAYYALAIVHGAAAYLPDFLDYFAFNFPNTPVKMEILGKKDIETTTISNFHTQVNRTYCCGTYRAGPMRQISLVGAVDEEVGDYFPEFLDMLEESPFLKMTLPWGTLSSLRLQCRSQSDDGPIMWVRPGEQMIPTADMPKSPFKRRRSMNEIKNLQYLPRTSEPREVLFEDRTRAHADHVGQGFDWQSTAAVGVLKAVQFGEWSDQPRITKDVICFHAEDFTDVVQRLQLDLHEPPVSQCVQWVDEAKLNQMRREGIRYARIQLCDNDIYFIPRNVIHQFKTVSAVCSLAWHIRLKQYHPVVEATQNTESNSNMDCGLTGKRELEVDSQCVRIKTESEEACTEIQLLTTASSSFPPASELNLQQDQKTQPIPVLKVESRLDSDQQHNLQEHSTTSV
UniProt O00422: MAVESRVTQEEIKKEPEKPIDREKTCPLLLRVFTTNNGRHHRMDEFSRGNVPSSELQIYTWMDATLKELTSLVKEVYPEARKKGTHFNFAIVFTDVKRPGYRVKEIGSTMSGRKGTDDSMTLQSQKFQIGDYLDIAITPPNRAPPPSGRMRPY
UniProt Q96FV2: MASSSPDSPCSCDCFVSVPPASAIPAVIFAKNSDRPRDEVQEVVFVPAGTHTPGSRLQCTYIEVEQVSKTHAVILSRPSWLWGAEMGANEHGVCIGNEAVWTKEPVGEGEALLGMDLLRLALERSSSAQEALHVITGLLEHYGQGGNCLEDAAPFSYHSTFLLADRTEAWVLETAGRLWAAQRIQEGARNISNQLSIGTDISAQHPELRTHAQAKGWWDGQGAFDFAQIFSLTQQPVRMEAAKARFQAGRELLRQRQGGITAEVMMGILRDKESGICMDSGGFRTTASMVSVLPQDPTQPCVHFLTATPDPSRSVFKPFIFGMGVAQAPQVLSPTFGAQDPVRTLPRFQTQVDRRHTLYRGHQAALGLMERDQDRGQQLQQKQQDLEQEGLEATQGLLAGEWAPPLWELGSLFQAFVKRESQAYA
UniProt Q15424: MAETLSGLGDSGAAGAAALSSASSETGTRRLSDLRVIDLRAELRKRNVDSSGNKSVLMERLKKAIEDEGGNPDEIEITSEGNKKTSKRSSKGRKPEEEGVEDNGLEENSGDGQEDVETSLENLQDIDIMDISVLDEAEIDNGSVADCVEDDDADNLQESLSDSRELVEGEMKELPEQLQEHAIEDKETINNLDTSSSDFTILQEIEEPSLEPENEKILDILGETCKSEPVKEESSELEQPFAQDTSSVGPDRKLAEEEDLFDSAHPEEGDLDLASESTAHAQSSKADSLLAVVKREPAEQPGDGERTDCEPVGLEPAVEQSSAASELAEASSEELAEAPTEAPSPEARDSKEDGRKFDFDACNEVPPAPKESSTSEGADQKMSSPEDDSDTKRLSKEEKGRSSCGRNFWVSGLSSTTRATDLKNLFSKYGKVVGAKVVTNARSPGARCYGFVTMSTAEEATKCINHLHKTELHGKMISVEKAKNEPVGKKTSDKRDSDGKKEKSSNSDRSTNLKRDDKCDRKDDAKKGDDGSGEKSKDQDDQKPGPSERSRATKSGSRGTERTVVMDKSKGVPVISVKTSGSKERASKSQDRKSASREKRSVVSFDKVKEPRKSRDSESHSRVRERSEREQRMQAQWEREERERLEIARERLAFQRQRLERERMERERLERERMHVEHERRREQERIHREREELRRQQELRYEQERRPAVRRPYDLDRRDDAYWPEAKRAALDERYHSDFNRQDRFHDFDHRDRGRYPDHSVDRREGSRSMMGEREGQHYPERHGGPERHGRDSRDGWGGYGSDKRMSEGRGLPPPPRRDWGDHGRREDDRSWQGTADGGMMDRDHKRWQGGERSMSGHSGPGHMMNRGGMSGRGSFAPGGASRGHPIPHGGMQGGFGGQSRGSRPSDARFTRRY
UniProt Q15437: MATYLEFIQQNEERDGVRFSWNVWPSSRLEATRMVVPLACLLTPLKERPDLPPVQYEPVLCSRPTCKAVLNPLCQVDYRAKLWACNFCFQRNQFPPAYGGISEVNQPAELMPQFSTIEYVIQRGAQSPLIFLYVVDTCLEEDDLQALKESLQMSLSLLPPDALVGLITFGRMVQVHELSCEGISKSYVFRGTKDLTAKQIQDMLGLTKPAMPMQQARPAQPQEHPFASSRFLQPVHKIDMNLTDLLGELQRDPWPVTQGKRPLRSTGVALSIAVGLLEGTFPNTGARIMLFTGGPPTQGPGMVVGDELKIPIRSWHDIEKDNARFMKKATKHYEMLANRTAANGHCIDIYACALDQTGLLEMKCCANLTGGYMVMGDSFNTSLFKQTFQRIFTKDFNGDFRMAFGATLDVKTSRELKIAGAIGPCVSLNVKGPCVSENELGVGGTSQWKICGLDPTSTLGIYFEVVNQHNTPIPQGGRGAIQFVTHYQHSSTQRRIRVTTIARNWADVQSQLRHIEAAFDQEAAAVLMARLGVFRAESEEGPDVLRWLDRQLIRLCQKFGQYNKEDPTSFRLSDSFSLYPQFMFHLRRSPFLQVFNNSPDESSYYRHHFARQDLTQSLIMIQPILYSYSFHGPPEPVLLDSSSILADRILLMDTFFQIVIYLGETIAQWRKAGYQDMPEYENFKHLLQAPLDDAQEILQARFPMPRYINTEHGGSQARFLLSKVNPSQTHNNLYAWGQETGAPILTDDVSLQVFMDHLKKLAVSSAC
UniProt Q9NQC3: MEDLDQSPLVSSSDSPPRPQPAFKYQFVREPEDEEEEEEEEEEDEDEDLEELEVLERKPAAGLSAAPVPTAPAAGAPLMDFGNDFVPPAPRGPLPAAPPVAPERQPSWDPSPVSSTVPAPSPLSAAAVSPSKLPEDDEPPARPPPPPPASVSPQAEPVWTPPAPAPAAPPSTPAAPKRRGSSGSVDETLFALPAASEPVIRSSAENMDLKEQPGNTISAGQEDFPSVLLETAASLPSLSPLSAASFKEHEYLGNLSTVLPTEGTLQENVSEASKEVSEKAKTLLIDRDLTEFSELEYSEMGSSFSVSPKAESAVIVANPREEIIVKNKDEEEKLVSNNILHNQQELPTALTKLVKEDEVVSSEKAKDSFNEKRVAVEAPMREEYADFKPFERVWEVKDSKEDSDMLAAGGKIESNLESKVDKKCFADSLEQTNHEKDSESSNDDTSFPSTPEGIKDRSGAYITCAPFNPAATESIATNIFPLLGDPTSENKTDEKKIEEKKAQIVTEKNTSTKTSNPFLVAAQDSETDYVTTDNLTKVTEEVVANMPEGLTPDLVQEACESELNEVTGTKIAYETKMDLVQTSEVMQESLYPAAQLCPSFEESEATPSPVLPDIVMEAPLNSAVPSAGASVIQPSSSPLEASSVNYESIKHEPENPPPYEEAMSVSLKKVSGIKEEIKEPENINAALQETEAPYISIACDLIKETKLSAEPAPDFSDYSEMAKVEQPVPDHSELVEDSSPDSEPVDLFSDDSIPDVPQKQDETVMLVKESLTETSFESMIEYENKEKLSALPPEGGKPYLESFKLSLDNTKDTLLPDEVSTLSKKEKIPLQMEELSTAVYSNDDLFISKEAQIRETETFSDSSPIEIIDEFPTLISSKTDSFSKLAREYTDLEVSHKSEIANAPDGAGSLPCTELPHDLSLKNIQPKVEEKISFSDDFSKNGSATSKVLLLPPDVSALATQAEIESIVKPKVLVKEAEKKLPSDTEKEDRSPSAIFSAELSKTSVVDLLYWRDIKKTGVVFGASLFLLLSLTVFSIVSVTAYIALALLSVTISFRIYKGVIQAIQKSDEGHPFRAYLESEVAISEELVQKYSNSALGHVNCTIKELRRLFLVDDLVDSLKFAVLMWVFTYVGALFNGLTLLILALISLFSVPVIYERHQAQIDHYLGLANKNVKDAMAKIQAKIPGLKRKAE
UniProt Q9Y3A5: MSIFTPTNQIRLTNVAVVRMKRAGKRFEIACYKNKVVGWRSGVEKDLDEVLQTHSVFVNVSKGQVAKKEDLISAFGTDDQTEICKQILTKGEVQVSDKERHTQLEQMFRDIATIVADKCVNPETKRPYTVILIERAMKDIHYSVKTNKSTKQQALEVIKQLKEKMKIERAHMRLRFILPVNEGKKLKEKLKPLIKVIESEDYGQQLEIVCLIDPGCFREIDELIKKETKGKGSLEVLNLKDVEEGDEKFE
UniProt Q8WVM8, whole entry, looked up: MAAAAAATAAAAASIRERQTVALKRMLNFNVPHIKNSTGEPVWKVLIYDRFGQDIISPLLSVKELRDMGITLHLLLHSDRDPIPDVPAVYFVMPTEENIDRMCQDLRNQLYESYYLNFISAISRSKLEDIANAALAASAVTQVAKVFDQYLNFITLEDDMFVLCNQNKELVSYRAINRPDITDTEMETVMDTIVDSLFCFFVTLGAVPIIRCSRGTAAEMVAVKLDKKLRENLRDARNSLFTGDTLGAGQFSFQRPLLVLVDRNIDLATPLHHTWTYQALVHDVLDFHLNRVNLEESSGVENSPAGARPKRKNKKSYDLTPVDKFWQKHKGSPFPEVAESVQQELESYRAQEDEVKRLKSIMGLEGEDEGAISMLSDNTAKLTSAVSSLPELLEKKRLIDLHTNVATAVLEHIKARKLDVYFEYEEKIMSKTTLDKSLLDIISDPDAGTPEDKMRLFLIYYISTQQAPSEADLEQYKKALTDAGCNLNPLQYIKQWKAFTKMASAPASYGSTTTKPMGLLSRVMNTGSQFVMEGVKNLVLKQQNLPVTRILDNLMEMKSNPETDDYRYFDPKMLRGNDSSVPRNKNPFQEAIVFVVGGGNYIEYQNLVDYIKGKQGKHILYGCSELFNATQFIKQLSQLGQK
UniProt P82979: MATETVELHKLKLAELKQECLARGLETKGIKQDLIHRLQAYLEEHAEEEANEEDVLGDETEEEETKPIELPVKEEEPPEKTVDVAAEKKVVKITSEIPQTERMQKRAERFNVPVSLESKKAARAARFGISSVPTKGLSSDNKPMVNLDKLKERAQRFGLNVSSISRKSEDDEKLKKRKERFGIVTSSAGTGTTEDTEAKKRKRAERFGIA
UniProt Q6UVJ0: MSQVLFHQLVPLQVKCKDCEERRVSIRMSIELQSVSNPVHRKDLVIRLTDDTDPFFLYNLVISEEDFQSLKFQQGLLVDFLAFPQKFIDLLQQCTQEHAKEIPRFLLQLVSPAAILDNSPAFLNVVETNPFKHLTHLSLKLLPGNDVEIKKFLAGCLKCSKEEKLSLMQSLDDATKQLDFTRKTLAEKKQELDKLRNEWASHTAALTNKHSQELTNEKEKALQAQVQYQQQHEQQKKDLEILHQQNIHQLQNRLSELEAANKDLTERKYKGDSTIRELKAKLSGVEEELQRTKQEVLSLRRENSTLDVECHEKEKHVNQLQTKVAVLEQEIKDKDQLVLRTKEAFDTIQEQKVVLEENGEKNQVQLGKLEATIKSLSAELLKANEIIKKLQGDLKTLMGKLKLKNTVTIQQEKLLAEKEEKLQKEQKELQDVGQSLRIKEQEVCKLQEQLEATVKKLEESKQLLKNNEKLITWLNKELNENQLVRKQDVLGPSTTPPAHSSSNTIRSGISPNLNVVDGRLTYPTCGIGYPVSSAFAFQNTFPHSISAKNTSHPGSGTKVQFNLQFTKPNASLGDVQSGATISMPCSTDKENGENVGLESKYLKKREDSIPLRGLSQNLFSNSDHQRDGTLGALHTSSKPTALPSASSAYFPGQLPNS
UniProt P67812: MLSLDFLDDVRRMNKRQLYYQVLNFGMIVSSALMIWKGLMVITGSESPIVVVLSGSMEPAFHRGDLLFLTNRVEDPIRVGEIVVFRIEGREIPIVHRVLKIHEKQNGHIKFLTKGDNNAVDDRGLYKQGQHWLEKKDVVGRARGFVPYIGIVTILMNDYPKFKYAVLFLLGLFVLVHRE
UniProt O14828: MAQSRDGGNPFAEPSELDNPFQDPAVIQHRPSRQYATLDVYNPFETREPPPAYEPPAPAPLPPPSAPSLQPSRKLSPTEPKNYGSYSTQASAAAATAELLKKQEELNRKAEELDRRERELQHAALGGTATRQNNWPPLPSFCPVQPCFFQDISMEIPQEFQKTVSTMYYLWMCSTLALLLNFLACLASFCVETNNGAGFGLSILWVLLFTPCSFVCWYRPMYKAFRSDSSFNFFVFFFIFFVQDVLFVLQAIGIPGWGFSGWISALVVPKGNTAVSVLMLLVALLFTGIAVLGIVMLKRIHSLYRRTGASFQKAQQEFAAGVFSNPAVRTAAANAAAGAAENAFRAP

Columns and labels:
Test in all cases: log2 fold change, soluble protein after heating vs DMSO (PISA); higher = thermal stabilisation; K562 cells, 10 uM, 30 min; active = over 0.2 and 3.5 SD of the protein, either way, in both replicates (recomputed)
[1] = compound: CS(=O)(=O)c1ccc(-c2cnc(N)c(C(=O)Nc3ccccc3)n2)cc1
Outline: (§1)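 Thermal stability values are relative to control samples and come from duplicates. They are expressed as log2 fold changes. For measurement, K562 cells (2×10^6 cells/mL) received 10 μM compound for 30 min, and aliquots were heated for 3 min over 48°C-58°C, pooled, and extracted at 4°C in PBS with 0.5% NP-40. Soluble protein, the supernatant after 21,000xg for 90 min, was quantified by TMTpro 16plex LC-MS/MS with equalised channel sums.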

[2] = compound: C[C@@H](Oc1cc(-c2cnn(C3CCNCC3)c2)cnc1N)c1c(Cl)ccc(F)c1Cl [crizotinib]
Outline: as §1

[3] = compound: C[C@@H]1COCCN1C2=NC(=NC(=C2)C3(CC3)S(=O)(=O)C)C4=C5C=CNC5=CC=C4
Outline: as §1

[4] = compound: C[C@H](C1=CC=C(C=C1)C(=O)NC2=C3C=CNC3=NC=C2)N
Outline: as §1

[5] = compound: C[C@H](Nc1ncnc2nc[nH]c12)c1cc2cccc(Cl)c2c(=O)n1-c1ccccc1 [duvelisib]
Outline: as §1

[6] = compound: Cc1cc(Nc2cc(CN3CCOCC3)c3nc(C)c(Cc4ccc(Cl)cc4F)n3n2)n[nH]1 [gandotinib]
Outline: as §1

[7] = compound: Cc1cc(Nc2cc(N3CCN(C)CC3)nc(Sc3ccc(NC(=O)C4CC4)cc3)n2)n[nH]1 [tozasertib]
Outline: as §1

[8] = compound: Cc1cc(SCc2sc(-c3ccc(C(F)(F)F)cc3)nc2C)ccc1OCC(=O)O
Outline: as §1

[9] = compound: Cc1ccc(-n2nc(C(C)(C)C)cc2NC(=O)Nc2ccc(OCCN3CCOCC3)c3ccccc23)cc1 [doramapimod]
Outline: as §1

[10] = compound: Cc1ccc(C(=O)N(CCCN)[C@@H](c2nc3cc(Cl)ccc3c(=O)n2Cc2ccccc2)C(C)C)cc1 [ispinesib]
Outline: as §1

[11] = compound: Cc1ccc(NC(=O)c2ccc(CN3CC[C@H](N(C)C)C3)c(C(F)(F)F)c2)cc1Nc1nccc(-c2cncnc2)n1 [bafetinib]
Outline: as §1

[12] = compound: Cc1cccc(CC(=O)N2CCc3c2ccc(-c2cn(C)c4ncnc(N)c24)c3F)n1
Outline: as §1

[13] = compound: Cc1cn(-c2cc(NC(=O)c3ccc(C)c(Nc4nccc(-c5cccnc5)n4)c3)cc(C(F)(F)F)c2)cn1 [nilotinib]
Outline: as §1

[14] = compound: Cc1nc(Nc2n[nH]c3c2CN(C(=O)N[C@H](CN(C)C)c2ccccc2)C3(C)C)c2sccc2n1
Outline: as §1

[15] = compound: Cc1nc(Nc2ncc(C(=O)Nc3c(C)cccc3Cl)s2)cc(N2CCN(CCO)CC2)n1 [dasatinib]
Outline: as §1

[16] = compound: Cc1ncc(-c2ccnc(Nc3ccc(S(C)(=O)=O)cc3)n2)n1C(C)C
Outline: as §1

[17] = compound: Cn1cc(-c2ccc3c(c2)CCN3C(=O)Cc2cccc(C(F)(F)F)c2)c2c(N)ncnc21
Outline: as §1

[18] = compound: Cn1cc(-c2ccc3nnc(C(F)(F)c4ccc5ncccc5c4)n3n2)cn1
Outline: as §1

[19] = compound: Cn1cncc1[C@@](N)(c1ccc(Cl)cc1)c1ccc2c(c1)c(-c1cccc(Cl)c1)cc(=O)n2C [tipifarnib]
Outline: as §1

[20] = compound: FC(F)(F)c1ccc(/C=C/c2nc(COc3ccc(CCCCn4ccnn4)cc3)co2)cc1 [mubritinib]
Outline: as §1

Measured: log2 fold change

RSBN1 (UniProt Q5VWQ0)
inactive: [1] 0.033 | [2] 0.002 | [3] -0.329 | [4] 0.318 | [5] -0.27 | [6] 0.255 | [7] 0.048 | [8] -0.015 | [9] 0.286 | [10] -0.055 | [11] 0.092 | [12] 0.234 | [13] 0.061 | [14] 0.216 | [15] 0.071 | [16] -0.297 | [17] -0.273 | [18] -0.125 | [19] 0.241 | [20] -0.253

SAMHD1 (UniProt Q9Y3Z3)
inactive: [1] 0 | [2] 0.002 | [3] 0.022 | [4] -0.026 | [5] 0.036 | [6] -0.104 | [7] -0.035 | [8] -0.025 | [9] 0.009 | [10] -0.02 | [11] -0.134 | [12] 0.014 | [13] -0.08 | [14] -0.097 | [15] -0.125 | [16] 0.019 | [17] 0.024 | [18] 0.025 | [19] 0.051 | [20] -0.04

SAP18 isoform 2 (UniProt O00422)
inactive: [1] -0.171 | [2] -0.096 | [3] -0.114 | [4] 0.176 | [5] -0.036 | [6] 0.096 | [7] 0.028 | [8] -0.002 | [9] 0.039 | [10] -0.123 | [11] 0.073 | [12] -0.089 | [13] 0.062 | [14] 0.031 | [15] 0.201 | [16] 0.029 | [17] -0.165 | [18] -0.145 | [19] 0.097 | [20] -0.069

SCRN2 (UniProt Q96FV2)
inactive: [1] 0.197 | [2] 0.08 | [3] 0.076 | [4] 0.093 | [5] 0.109 | [6] -0.077 | [7] 0.043 | [8] 0.048 | [9] -0.093 | [10] -0.051 | [11] -0.002 | [12] 0.012 | [13] 0.045 | [14] -0.007 | [15] -0.06 | [16] -0.066 | [17] -0.019 | [18] -0.157 | [19] 0.069 | [20] 0.118

SEC24C (UniProt P53992)
inactive: [1] 0.013 | [2] 0.026 | [3] 0.05 | [4] 0.012 | [5] 0.042 | [6] -0.171 | [7] 0.018 | [8] 0.069 | [9] 0.005 | [10] 0.04 | [11] 0.078 | [12] 0.025 | [13] -0.035 | [14] -0.038 | [15] -0.067 | [16] 0.022 | [17] 0.012 | [18] -0.038 | [19] -0.098 | [20] 0.013

SAFB isoform 3 (UniProt Q15424)
inactive: [1] 0.026 | [2] -0.042 | [3] -0.229 | [4] 0.025 | [5] -0.078 | [6] 0.24 | [7] -0.096 | [8] -0.046 | [9] 0.037 | [10] 0.04 | [11] 0.157 | [12] 0 | [13] 0.027 | [14] 0.065 | [15] 0.247 | [16] -0.098 | [17] 0.034 | [18] -0.08 | [19] 0.121 | [20] -0.147

SEC23B (UniProt Q15437)
inactive: [1] -0.008 | [2] 0.05 | [3] 0.027 | [4] -0.035 | [5] 0.04 | [6] -0.027 | [7] 0.015 | [8] 0.048 | [9] -0.011 | [10] 0.068 | [11] 0.001 | [12] -0.002 | [13] -0.028 | [14] -0.004 | [15] -0.06 | [16] -0.013 | [17] 0.044 | [18] -0.021 | [19] -0.031 | [20] 0.006

RUVBL2 (UniProt Q9Y230)
inactive: [1] 0.054 | [2] 0.119 | [3] -0.014 | [4] -0.019 | [5] 0.002 | [6] -0.03 | [7] 0.034 | [8] -0.042 | [9] 0.007 | [10] 0.138 | [11] 0.044 | [12] 0.047 | [13] 0.107 | [14] 0.07 | [15] 0.025 | [16] -0.012 | [17] -0.012 | [18] -0.018 | [19] -0.02 | [20] 0.014

RTN4 (UniProt Q9NQC3)
inactive: [1] -0.023 | [2] 0.013 | [3] 0.002 | [4] -0.036 | [5] 0.06 | [6] -0.071 | [7] -0.013 | [8] -0.042 | [9] 0.001 | [10] -0.008 | [11] -0.019 | [12] -0.045 | [13] -0.039 | [14] 0.036 | [15] 0.043 | [16] -0.044 | [17] -0.002 | [18] -0.038 | [19] -0.029 | [20] 0.002

SBDS (UniProt Q9Y3A5)
inactive: [1] 0.057 | [2] -0.064 | [3] 0.11 | [4] -0.015 | [5] 0.02 | [6] -0.104 | [7] -0.023 | [8] 0.072 | [9] -0.039 | [10] -0.018 | [11] 0.031 | [12] 0.057 | [13] -0.102 | [14] 0.006 | [15] -0.156 | [16] 0.031 | [17] 0.06 | [18] 0.029 | [19] -0.151 | [20] 0.161

RTF1 (UniProt Q92541)
inactive: [1] 0.026 | [2] 0.026 | [3] 0.091 | [4] -0.067 | [5] 0.064 | [6] -0.102 | [7] -0.015 | [8] 0.036 | [9] -0.034 | [10] 0.019 | [11] -0.023 | [12] -0.006 | [13] -0.009 | [14] -0.082 | [15] -0.093 | [16] -0.01 | [17] 0.033 | [18] 0.015 | [19] -0.044 | [20] 0.086

SCFD1 (UniProt Q8WVM8)
inactive: [1] 0.009 | [2] -0.049 | [3] 0.033 | [4] 0.034 | [5] 0.026 | [6] -0.075 | [7] 0.009 | [8] 0.097 | [9] -0.034 | [10] -0.003 | [11] -0.018 | [12] 0.029 | [13] -0.03 | [14] -0.037 | [15] -0.136 | [16] 0.002 | [17] 0.018 | [18] 0.015 | [19] -0.022 | [20] 0.084

Pulled one by one from above (two):
RTF1 (UniProt Q92541)
inactive: [1] 0.026 | [2] 0.026 | [3] 0.091 | [4] -0.067 | [5] 0.064 | [6] -0.102 | [7] -0.015 | [8] 0.036 | [9] -0.034 | [10] 0.019 | [11] -0.023 | [12] -0.006 | [13] -0.009 | [14] -0.082 | [15] -0.093 | [16] -0.01 | [17] 0.033 | [18] 0.015 | [19] -0.044 | [20] 0.086

RUVBL2 (UniProt Q9Y230)
inactive: [1] 0.054 | [2] 0.119 | [3] -0.014 | [4] -0.019 | [5] 0.002 | [6] -0.03 | [7] 0.034 | [8] -0.042 | [9] 0.007 | [10] 0.138 | [11] 0.044 | [12] 0.047 | [13] 0.107 | [14] 0.07 | [15] 0.025 | [16] -0.012 | [17] -0.012 | [18] -0.018 | [19] -0.02 | [20] 0.014

Next entries:

SARNP (UniProt P82979)
inactive: [1] -0.011 | [2] 0.066 | [3] -0.079 | [4] 0.047 | [5] 0.006 | [6] 0.047 | [7] -0.037 | [8] -0.111 | [9] -0.068 | [10] -0.053 | [11] -0.051 | [12] -0.155 | [13] 0.034 | [14] 0.09 | [15] 0.121 | [16] 0.011 | [17] -0.074 | [18] -0.019 | [19] 0.049 | [20] 0.066

SASS6 (UniProt Q6UVJ0)
inactive: [1] 0.092 | [2] 0.004 | [3] -0.021 | [4] 0.061 | [5] -0.143 | [6] -0.169 | [7] -0.056 | [8] 0.022 | [9] 0.066 | [10] -0.126 | [11] -0.073 | [12] 0.029 | [13] -0.267 | [14] -0.108 | [15] -0.062 | [16] 0.151 | [17] -0.065 | [18] -0.066 | [19] -0.076 | [20] 0

SEC11A isoform 3 (UniProt P67812)
inactive: [1] -0.012 | [2] -0.006 | [3] -0.012 | [4] 0.005 | [5] 0.036 | [6] -0.061 | [7] 0.006 | [8] -0.003 | [9] 0.001 | [10] -0.026 | [11] -0.058 | [12] 0.024 | [13] 0.003 | [14] -0.011 | [15] -0.003 | [16] 0.006 | [17] -0.033 | [18] 0.027 | [19] 0.022 | [20] -0.016

SCAMP3 (UniProt O14828)
inactive: [1] 0.006 | [2] -0.03 | [3] 0.096 | [4] -0.003 | [5] 0.007 | [6] 0.025 | [7] -0.021 | [8] -0.035 | [9] -0.048 | [10] -0.107 | [11] -0.035 | [12] -0.021 | [13] 0.089 | [14] -0.05 | [15] 0.07 | [16] -0.006 | [17] -0.03 | [18] 0.002 | [19] -0.005 | [20] 0.054
